The values that follow come from patent USRE49708.

Protein sequences, listed by entry. Tags and fused reporters are not part of them.
UniProt Q8R0V5: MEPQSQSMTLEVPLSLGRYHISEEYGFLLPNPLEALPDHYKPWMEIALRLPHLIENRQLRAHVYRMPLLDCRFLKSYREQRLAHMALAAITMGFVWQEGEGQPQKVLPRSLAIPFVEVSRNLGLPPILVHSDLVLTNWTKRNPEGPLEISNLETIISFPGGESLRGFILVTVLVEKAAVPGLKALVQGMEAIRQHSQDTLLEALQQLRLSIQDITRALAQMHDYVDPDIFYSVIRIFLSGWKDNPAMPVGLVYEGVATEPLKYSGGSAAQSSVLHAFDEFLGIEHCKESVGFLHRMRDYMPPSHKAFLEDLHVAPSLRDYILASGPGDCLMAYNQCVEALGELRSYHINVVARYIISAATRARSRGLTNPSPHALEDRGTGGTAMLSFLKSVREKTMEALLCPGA

This experiment concerns the target recombinant muIDO2 protein produced with baculovirus vector pVLmuIDO2 (mouse) (UniProt Q8R0V5). The experiment is described as follows: SDS-PAGE of a Mono Q fraction, not reduced or heated (120 kDa band) against heated (about 55 kDa band).

No constants are given. Whether binding was seen depends on the method and setting. Some results given as binding are weak or reduced against the parent protein; the word gives no strength.

Turning to “recombinant muIDO2 protein produced with baculovirus vector pVLmuIDO2 (from UniProt Q8R0V5 1-405) (enzyme)”, the binding entry was “binds”.
